This passage reports AC50 results from PubChem BioAssay AID662 (National Center for Advancing Translational Sciences (NCATS), 2007).

This is one part of the list. Further columns of the screen follow, without active or inactive calls. The list favours compounds with an active or inconclusive main result. The note in brackets gives the kind of curve behind each potency; many fits are weak.

Usually AC50 stands for the concentration at which the activity in the assay is half-maximal.

The experiment can be described thus: Cell signaling CRE-BLA (Fsk stim). Particulars: CHO CRE-bla reporter (cAMP response element driving beta-lactamase), forskolin EC10, beta-lactamase ratio; measured here: 460 nm blue channel. An outline of the steps: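 CRE-bla CHO reporter cells treated with compound titration plus EC10 NKH 477 (water-soluble forskolin), incubated 3 h at 37 °C; CCF4 loading 2 h at room temperature, 460/530 nm emission ratio read, AC50 values derived for positive or negative modulators.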
As for `OCCNc1nc(-c2cccnc2)nc2ccccc12`, the AC50 is 3.16 µM [rising, full curve].

On to `Cc1ccccc1-n1c(=O)cc(NCc2ccc3c(c2)OCO3)[nH]c1=O`, for which the AC50 was 0.0158 µM [falling, full curve, poor fit].

On to `CCn1ncc(Br)c1C(=O)N(C)C12CC3CC(CC(C3)C1)C2`, for which the AC50 was 7.94 µM [rising, single point].

As for `COc1ccc2c(c1)CCc1c(C(=O)Nc3c(C)n(C)n(-c4ccccc4)c3=O)noc1-2`, the AC50 was 3.98 µM [rising, partial curve].

In the case of `CN(Cc1ccco1)c1ncnc2ccc(-c3cccc(NS(C)(=O)=O)c3)cc12`, the AC50 was 2 µM [rising, full curve].

On to `O=c1c(CCc2ccccc2)nc2cnc(Nc3ccccc3)nc2n1C[C@H]1CCCO1`, for which the AC50 was 7.94 µM [rising, partial curve].

`Cn1cc(C2=C(c3ccc(Cl)cc3Cl)C(=O)NC2=O)c2ccccc21`: the AC50 was 3.98 µM [falling, partial curve].

On to `COc1cc2c(C(=O)NCc3ccc(C)o3)cn(CC(C)C)c(=O)c2cc1OC`, for which the AC50 was 3.16 µM [rising, full curve].

Consider `COCCNS(=O)(=O)c1cc(-c2nn(C)c(=O)c3ccccc23)ccc1C`, for which the AC50 is 10 µM [rising, partial curve].

`COCCn1c(=O)c(-c2cc(F)cc(F)c2)nc2cnc(Oc3cccc(Cl)c3)nc21`: the half-maximal activity concentration (AC50) was 10 µM [rising, partial curve].

Take `O=C(c1ccccc1)c1cccn1CC(=O)N1CCCCCC1`: the AC50 was 31.6 µM [falling, partial curve, poor fit].

For `COc1ccc(-c2noc(CCCc3ccccc3)n2)cc1OC`, the AC50 is 5.01 µM [rising, partial curve].

With `Cc1cccn2c(=O)c3cc(C(=O)NCc4ccco4)c(=N)n(CCc4ccccc4)c3nc12`, the AC50 is 20 µM [rising, single point].

For the compound `O=C(CN1CCN(c2ccccc2)CC1)Nc1c(C(=O)C2CC2)oc2ccccc12`, the AC50 was 0.0126 µM [rising, full curve].

In the case of `COc1ccc(-c2nc3cnc(OC)nc3n(-c3ccccc3)c2=O)cc1`, the concentration at half-maximal activity (AC50) was 3.16 µM [rising, full curve].

For `Cn1c(-c2c(N)n(C3CCCC3)c3nc4ccccc4nc23)nc2ccccc21`, the AC50 is 5.01 µM [rising, partial curve].

`CCCC1(c2ccccc2)NC(=O)N(CC(=O)c2[nH]c(C)c(C(=O)OCC)c2C)C1=O` (configuration not stated): the AC50 is 7.94 µM [rising, partial curve].

Consider `CC(C)Nc1nc(NC(C)C)nc(Oc2ccc(/C=N/O)cc2)n1`, for which the AC50 is 0.398 µM [falling, partial curve].

Regarding `NC(=O)C1CCN(C(=O)CCCCCn2c(=O)[nH]c3ccsc3c2=O)CC1`, the AC50 was 0.126 µM [falling, partial curve].

On to `O=C1c2ccccc2-c2nc3ncnn3c(-c3ccccc3Cl)c21`, for which the AC50 is 12.6 µM [rising, partial curve].

`CCCn1c(=O)c(C(=O)Nc2ccccc2C(=O)OC)c(O)c2ccccc21`: the AC50 was 3.16 µM [rising, partial curve].

For `CC(=O)Nc1ccc(N=Cc2nc(-c3ccc(C)cc3)oc2O)cc1`, the AC50 is 5.01 µM [rising, partial curve].

Turning to `CCOC(=O)c1cccc(NC(=O)CSc2nc3ccccc3c(=O)n2CCOC)c1`, the AC50 was 20 µM [rising, single point].

As for `O=C(Nc1cccnc1N1CCOCC1)c1ccco1`, the AC50 was 12.6 µM [rising, single point].

`COc1ccccc1-c1cc(-n2ccnc2)ncn1`: the AC50 is 10 µM [rising, partial curve].

With `O=C(Nc1ccc2oc(-c3ccccc3)nc2c1)c1cccnc1`, the concentration at half-maximal activity (AC50) is 12.6 µM [rising, partial curve].

As for `COc1cc2c(cc1OC)/C(=C/C(=O)N1CCOCC1)NC(C)(C)C2`, the AC50 was 3.16 µM [rising, partial curve].

As for `Cc1cccc(Nc2cc(Cl)nc(SCC(=O)O)n2)c1C`, the AC50 is 31.6 µM [falling, partial curve, poor fit].

As for `Cc1ccc(-c2nn(-c3ccccc3)c3[nH]c(=O)c(CNCCN(C)C)cc23)cc1`, the AC50 is 0.00631 µM [falling, full curve, poor fit].

With `FC(F)(F)c1nc2nc(Cl)c(Cl)nc2n1CCCN1CCOCC1`, the AC50 was 5.01 µM [rising, single point].

With `Nc1c(S(=O)(=O)c2cccc(Cl)c2)c2nc3ccccc3nc2n1CCN1CCOCC1`, the AC50 was 10 µM [rising, partial curve].

Regarding `Cc1cccc(CNc2ccnc(-c3cccnc3)n2)c1`, the AC50 was 5.01 µM [rising, single point].

Turning to `Cc1cc(NC(=O)CC2CCCC2)n(-c2nc3ccccc3[nH]2)n1`, the AC50 is 5.01 µM [falling, single point].

For `O=C(CSc1nnc(Cc2ccccc2)o1)N1CCc2ccccc21`, the AC50 was 25.1 µM [rising, single point].

For `COc1ccc(-c2cc(C(=O)OCC(=O)N3CCCC3)c3ccccc3n2)cc1`, the AC50 is 15.8 µM [rising, single point].

On to `CC[C@H](C)C(=O)O[C@H]1CCC=C2C=C[C@H](C)[C@H](CC[C@@H]3C[C@H](O)CC(=O)O3)[C@H]21`, for which the AC50 was 25.1 µM [rising, partial curve, poor fit].

With `COc1cccc(Nc2ncc3nc(-c4ccccc4)c(=O)n(Cc4cccs4)c3n2)c1`, the AC50 was 2 µM [rising, partial curve].

Regarding `CSC1=C(C#N)C(c2ccccc2C)C(C#N)=C(N)N1` (configuration not stated), the AC50 was 12.6 µM [rising, partial curve].

For the compound `O=C(NCCCN1CCOCC1)C1CC(=O)N(CCc2ccccc2)C1` (configuration not stated), the AC50 was 0.00398 µM [falling, full curve, poor fit].

Consider `Cc1ccc(Nc2cc(C)nc3nc(C)nn23)c(C)c1`, for which the AC50 was 12.6 µM [rising, single point].

As to `CCNc1cc2oc(=O)c(CN3CCOCC3)c(C)c2cc1C`, the AC50 is 3.16 µM [rising, partial curve].

Regarding `O=C1CC(N2CCN(c3ccc(Cl)c(Cl)c3)CC2)C(=O)N1` (configuration not stated), the AC50 was 1.26 µM [rising, partial curve, poor fit].
